Test results published in publication PMC11599752.
No constants are given. Whether binding was seen depends on the method and setting. In cells and extracts the contact can be indirect. Binding can be weak; no strength is given.

Target: T1, SFPQ (human (endogenous in TREx-BCBL1-RTA)) (UniProt P23246)
T1 sequence: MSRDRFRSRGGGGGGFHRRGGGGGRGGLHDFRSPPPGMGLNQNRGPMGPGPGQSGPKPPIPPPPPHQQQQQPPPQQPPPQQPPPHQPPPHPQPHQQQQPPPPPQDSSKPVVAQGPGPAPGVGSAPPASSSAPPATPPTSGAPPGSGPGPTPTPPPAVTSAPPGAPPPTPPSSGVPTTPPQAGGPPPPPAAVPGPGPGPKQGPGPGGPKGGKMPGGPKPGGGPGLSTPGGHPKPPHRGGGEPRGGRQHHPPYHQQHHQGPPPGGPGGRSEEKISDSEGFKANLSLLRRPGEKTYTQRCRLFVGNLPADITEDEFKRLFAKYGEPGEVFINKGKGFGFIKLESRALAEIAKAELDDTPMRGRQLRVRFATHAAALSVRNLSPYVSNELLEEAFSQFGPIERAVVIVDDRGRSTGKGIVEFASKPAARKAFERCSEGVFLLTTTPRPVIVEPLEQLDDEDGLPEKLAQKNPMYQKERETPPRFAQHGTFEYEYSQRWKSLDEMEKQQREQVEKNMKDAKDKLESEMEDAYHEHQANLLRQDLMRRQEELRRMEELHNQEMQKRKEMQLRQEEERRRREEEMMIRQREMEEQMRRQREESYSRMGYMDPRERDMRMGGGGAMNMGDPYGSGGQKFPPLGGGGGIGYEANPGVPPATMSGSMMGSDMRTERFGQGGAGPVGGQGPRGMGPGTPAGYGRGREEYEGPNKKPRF
Assay: co-IP

With FLAG-ORF11 the binding was “binds”.
